Results published in article PMC11448500.
No constants are given. Whether binding was seen depends on the method and setting. In cells and extracts the contact can be indirect. A result given as binding can be weak or reduced; the word gives no strength.

Target: T1, KDM2A (mouse (endogenous in c-KIT+ spermatogonia of mouse testes)) (UniProt P59997)
T1 sequence: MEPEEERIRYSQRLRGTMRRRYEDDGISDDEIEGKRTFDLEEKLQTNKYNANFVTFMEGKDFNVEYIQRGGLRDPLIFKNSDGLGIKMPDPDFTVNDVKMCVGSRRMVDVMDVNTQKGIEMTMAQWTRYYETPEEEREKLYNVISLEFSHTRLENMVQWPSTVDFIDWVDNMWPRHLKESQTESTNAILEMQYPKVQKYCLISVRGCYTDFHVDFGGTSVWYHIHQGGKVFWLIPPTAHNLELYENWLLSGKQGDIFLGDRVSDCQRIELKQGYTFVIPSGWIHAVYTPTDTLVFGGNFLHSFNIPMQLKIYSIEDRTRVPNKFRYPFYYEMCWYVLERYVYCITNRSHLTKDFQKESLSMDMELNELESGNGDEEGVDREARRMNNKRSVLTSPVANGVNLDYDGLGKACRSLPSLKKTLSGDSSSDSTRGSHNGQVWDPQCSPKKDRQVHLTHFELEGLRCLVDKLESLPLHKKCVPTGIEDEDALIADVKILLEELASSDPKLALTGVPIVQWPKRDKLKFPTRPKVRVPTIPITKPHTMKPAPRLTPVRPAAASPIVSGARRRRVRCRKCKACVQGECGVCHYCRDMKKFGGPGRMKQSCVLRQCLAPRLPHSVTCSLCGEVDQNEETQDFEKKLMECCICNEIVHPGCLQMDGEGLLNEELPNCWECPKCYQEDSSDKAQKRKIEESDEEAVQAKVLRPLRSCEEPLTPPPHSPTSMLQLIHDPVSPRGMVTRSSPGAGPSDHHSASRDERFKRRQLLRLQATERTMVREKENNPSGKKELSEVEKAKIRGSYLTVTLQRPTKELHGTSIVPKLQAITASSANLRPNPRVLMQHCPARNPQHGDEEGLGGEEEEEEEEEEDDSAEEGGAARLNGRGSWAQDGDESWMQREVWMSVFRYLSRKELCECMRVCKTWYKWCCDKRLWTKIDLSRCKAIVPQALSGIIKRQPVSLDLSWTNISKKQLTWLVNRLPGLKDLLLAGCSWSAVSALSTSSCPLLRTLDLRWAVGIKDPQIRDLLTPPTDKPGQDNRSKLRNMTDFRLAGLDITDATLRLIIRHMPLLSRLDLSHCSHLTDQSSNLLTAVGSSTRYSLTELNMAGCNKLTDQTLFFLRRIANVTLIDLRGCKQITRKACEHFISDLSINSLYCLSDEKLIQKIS
Assay: co-IP; lysate of purified c-KIT+ spermatogonia, relevant antibodies and protein A/G magnetic beads overnight at 4 °C, with or without Super Nuclease, six washes, western blot; IgG as negative control

In the case of HCFC1, the binding is reported as “binds”.
